These results are taken from the supplement of paper PMC7666118.

Protein sequences, listed by entry. Tags and fused reporters are not part of them. Lines headed by an entry give the natural chain unless they say otherwise; changes in a name come on top.
UniProt Q969V5: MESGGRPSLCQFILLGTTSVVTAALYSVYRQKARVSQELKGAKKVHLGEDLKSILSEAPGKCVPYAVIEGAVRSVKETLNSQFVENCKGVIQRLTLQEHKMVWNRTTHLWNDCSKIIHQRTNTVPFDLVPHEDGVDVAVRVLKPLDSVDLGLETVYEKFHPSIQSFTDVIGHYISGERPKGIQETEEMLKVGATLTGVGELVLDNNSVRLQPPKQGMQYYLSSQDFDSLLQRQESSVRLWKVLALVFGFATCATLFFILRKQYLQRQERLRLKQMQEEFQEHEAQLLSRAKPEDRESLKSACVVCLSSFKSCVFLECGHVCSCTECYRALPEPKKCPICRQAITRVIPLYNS
UniProt Q9BTT4: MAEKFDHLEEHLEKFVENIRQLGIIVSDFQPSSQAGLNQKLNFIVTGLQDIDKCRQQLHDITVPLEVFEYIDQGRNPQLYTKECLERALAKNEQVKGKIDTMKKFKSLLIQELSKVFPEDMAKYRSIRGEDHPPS
UniProt Q9Y2X0: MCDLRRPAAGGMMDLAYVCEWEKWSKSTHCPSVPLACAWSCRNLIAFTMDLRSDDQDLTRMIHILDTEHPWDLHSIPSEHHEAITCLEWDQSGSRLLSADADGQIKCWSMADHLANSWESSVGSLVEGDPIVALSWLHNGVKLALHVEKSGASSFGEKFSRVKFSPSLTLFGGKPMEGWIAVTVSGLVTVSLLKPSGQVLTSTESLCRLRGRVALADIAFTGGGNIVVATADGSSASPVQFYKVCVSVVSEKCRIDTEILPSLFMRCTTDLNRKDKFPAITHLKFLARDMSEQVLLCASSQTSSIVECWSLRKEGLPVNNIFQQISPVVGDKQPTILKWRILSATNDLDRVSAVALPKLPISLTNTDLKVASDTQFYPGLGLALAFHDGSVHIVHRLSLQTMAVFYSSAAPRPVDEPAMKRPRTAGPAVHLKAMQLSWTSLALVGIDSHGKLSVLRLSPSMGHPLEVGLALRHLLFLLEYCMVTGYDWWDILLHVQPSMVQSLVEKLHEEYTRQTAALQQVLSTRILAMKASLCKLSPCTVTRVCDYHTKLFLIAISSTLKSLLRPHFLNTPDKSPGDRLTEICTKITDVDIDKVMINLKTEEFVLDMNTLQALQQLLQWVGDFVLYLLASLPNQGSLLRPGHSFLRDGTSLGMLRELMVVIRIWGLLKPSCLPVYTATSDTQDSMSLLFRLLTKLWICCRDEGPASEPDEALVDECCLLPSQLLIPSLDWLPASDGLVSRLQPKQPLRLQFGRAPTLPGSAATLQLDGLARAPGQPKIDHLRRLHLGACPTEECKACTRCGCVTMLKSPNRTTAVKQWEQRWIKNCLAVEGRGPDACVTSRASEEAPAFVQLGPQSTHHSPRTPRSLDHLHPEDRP
UniProt Q96DH6: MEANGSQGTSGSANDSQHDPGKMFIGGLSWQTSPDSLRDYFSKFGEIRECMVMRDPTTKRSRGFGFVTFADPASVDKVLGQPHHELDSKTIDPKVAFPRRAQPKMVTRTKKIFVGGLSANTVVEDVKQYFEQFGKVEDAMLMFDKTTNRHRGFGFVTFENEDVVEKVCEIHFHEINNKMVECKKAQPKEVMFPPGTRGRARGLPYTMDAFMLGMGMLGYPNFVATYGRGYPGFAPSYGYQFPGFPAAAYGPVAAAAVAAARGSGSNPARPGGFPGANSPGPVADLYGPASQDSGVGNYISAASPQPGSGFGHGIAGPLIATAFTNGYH
UniProt Q969V6: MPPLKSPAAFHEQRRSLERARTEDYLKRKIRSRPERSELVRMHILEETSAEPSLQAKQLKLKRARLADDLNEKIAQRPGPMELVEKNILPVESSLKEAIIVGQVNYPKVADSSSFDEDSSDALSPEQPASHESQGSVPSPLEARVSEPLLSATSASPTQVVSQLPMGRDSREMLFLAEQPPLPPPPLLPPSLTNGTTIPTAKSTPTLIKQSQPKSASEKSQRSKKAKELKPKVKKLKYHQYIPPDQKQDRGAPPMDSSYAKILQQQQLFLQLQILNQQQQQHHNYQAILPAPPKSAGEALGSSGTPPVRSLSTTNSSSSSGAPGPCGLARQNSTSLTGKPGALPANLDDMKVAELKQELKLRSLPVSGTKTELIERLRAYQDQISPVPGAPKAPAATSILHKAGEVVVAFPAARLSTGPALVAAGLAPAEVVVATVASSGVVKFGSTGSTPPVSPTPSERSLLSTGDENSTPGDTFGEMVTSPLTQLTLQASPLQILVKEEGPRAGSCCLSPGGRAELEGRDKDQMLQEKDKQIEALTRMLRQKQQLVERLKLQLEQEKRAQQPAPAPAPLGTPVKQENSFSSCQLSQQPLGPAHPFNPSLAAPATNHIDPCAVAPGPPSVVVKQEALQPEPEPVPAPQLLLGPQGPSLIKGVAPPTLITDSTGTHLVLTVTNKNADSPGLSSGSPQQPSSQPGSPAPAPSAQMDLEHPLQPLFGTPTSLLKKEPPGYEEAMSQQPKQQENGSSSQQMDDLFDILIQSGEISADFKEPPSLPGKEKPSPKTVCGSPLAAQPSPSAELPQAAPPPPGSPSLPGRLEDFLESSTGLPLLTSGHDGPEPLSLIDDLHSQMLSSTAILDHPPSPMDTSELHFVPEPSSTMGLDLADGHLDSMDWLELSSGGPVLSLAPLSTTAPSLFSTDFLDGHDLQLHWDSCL
UniProt Q96E29: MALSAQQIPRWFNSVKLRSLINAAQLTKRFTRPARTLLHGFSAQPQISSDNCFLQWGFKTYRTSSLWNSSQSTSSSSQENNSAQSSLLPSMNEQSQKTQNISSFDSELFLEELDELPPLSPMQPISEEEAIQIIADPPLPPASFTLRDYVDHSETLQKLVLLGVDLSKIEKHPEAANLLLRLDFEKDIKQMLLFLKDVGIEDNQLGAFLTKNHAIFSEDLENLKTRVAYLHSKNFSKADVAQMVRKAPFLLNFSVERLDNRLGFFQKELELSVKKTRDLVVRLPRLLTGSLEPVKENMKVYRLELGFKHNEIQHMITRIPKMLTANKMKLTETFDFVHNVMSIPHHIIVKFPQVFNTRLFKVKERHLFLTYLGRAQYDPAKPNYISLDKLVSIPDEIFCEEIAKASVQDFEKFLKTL
UniProt P35579, whole entry: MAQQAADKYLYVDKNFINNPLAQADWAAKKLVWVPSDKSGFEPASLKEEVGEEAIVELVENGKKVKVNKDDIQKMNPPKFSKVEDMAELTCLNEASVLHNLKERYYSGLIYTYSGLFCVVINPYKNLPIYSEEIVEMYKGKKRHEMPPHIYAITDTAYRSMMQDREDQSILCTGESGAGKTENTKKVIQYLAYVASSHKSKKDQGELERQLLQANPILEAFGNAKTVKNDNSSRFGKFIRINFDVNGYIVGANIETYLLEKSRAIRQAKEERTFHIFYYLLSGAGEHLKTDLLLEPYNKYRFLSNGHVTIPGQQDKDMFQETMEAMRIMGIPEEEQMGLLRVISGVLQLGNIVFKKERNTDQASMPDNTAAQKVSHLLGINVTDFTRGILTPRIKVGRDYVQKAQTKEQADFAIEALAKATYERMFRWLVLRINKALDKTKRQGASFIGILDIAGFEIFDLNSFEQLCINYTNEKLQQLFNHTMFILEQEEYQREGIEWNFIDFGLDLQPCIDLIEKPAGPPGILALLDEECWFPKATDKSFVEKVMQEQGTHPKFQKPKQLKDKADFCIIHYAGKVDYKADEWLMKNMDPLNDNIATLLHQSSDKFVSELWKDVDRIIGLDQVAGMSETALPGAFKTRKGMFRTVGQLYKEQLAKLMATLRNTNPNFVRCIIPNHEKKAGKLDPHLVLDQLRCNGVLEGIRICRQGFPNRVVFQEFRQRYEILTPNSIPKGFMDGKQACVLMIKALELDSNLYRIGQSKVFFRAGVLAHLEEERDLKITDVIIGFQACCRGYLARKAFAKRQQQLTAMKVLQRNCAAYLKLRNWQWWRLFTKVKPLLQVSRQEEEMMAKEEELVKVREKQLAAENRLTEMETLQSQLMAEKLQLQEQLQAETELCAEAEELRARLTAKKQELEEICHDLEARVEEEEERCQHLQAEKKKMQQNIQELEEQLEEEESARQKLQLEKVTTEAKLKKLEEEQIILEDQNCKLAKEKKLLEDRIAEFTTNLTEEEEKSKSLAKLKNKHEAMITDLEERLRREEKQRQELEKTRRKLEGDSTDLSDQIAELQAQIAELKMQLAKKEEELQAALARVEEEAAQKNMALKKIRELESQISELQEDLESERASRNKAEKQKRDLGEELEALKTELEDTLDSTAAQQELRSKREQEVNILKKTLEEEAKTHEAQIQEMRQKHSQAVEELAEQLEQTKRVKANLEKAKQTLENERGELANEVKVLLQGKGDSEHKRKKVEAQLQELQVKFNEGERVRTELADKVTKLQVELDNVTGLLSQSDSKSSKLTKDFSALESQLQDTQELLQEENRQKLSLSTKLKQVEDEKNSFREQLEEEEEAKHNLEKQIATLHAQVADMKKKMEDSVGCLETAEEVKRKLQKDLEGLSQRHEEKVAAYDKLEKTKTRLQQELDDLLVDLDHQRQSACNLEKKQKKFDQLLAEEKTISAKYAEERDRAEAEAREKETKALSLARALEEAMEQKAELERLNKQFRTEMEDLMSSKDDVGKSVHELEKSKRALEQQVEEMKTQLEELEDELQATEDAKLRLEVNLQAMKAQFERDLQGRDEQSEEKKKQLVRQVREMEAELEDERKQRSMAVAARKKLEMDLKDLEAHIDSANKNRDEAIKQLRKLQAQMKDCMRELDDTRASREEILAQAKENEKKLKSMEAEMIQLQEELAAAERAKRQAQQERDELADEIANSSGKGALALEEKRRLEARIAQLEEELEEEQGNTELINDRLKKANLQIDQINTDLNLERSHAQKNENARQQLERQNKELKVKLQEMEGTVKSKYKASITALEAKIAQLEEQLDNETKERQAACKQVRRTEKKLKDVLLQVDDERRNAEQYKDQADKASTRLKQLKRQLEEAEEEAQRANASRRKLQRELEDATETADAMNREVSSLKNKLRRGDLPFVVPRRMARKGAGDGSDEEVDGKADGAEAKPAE
UniProt Q9H944: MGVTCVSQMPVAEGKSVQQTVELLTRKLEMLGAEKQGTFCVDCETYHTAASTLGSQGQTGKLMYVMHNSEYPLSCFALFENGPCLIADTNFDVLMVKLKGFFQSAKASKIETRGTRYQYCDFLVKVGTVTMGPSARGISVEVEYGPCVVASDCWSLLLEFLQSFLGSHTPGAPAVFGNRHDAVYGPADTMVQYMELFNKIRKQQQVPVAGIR
UniProt Q9UJ68: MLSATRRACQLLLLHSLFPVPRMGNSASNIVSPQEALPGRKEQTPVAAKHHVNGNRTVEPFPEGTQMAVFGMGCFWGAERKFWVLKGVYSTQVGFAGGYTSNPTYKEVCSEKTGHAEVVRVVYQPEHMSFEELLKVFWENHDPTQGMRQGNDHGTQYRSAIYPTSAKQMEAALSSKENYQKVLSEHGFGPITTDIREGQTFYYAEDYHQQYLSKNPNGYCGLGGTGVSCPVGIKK
UniProt Q9UHC7: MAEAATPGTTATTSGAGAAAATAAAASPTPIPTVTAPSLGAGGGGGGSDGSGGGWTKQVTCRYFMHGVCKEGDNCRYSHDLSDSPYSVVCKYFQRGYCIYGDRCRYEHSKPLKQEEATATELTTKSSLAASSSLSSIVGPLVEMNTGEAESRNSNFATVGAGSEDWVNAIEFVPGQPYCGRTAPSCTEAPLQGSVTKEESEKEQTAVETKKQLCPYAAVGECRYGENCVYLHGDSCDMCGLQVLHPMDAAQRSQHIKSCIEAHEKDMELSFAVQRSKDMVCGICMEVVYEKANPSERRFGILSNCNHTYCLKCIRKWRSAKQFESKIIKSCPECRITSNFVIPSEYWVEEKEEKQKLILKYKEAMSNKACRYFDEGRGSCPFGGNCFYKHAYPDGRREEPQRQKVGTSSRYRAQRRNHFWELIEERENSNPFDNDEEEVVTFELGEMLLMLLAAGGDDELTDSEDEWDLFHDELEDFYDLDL
UniProt P53602: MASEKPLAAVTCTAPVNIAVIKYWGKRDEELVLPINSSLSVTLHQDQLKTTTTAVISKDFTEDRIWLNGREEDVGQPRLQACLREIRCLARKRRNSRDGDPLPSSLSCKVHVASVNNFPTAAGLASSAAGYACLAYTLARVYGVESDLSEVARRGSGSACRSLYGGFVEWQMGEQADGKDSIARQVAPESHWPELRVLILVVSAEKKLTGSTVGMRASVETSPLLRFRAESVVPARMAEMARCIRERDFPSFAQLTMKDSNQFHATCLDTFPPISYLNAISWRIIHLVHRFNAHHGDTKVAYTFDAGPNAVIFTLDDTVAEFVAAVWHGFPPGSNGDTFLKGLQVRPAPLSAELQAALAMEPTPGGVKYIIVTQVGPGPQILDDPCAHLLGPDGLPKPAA
UniProt Q9NPJ6: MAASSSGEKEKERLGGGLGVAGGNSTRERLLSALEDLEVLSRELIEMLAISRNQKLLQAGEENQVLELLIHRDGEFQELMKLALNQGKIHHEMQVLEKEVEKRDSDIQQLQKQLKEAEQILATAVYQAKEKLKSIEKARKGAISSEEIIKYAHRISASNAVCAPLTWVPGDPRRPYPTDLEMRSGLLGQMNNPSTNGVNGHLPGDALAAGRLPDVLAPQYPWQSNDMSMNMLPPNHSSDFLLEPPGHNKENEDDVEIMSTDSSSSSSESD

This is one part of the list.

Compound in the assay: COc1ccc(Cn2ccc3cc(C)c(C(=O)NO)cc32)cc1
The experiment in a line: dose-dependent thermal stabilisation call (2D-TPP, DLPTP, 10% FDR) (binary (1 = stabilised)); higher = stabilised by the compound. The conditions noted are these: system: HL-60 intact cells; concentration range 0.04-10 µM. The protocol:
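2D thermal proteome profiling in intact HL-60 cells treated with BRD-3811 (0, 0.04, 0.29, 2, 10 uM) for 90 min at 37 C, then heated 3 min at one of 12 temperatures (42-63.9 C). Soluble protein was quantified by TMT10 MS. The value is the DLPTP call of the paper: dose-dependent thermal stabilisation over all temperatures at 10% FDR (F-test of a dose-response against a flat model); one experiment, one call per tested protein.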
Take MUL1 (UniProt Q969V5): the “dose-dependent thermal stabilisation call” value was inactive: 0. The value for MRPL39 (UniProt Q9NYK5) was inactive: 0; that for MRPL9 (UniProt Q9BYD2) was inactive: 0; that for MRPL2 (UniProt Q5T653) was inactive: 0. The value for MYO1F (UniProt O00160) was inactive: 0.

With MED10 (UniProt Q9BTT4), the “dose-dependent thermal stabilisation call” value was inactive: 0.

For NAAA (UniProt Q02083), the “dose-dependent thermal stabilisation call” value is inactive: 0. With MED16 (UniProt Q9Y2X0), the “dose-dependent thermal stabilisation call” value was inactive: 0.

Take NACC1 (UniProt Q96RE7): the “dose-dependent thermal stabilisation call” value was inactive: 0. Then MEGF8 (UniProt Q7Z7M0), with inactive: 0.

Regarding MEPCE (UniProt Q7L2J0), the “dose-dependent thermal stabilisation call” value is inactive: 0. The value for MTHFD1L (UniProt Q6UB35) was inactive: 0. Then MFAP1 (UniProt P55081), with inactive: 0; and MRPL38 (UniProt Q96DV4), with inactive: 0. MSI2 (UniProt Q96DH6): the “dose-dependent thermal stabilisation call” value was inactive: 0. Then MTDH (UniProt Q86UE4), with inactive: 0. Then MKL1 (UniProt Q969V6), with inactive: 0. Then MTERFD1 (UniProt Q96E29), with inactive: 0. As to MYH9 (UniProt P35579), the “dose-dependent thermal stabilisation call” value is inactive: 0. The value for MED20 (UniProt Q9H944) was inactive: 0. Then MSRA (UniProt Q9UJ68), with inactive: 0. The value for MTPAP (UniProt Q9NVV4) was inactive: 0; that for MKRN1 (UniProt Q9UHC7) was inactive: 0. As for MGC16169, the “dose-dependent thermal stabilisation call” value was inactive: 0.

Turning to MRPS18C (UniProt Q9Y3D5), the “dose-dependent thermal stabilisation call” value was inactive: 0. Then MTMR9 (UniProt Q96QG7), with inactive: 0; and N-PAC, with inactive: 0.

MRPS14 (UniProt O60783): the “dose-dependent thermal stabilisation call” value was inactive: 0.

For the target MTCH1 (UniProt Q9NZJ7), the “dose-dependent thermal stabilisation call” value is inactive: 0.

Take METT11D1 (UniProt Q9H7H0): the “dose-dependent thermal stabilisation call” value is inactive: 0. Take MRPS21 (UniProt P82921): the “dose-dependent thermal stabilisation call” value was inactive: 0. Then MSH2 (UniProt P43246), with inactive: 0; and MVD (UniProt P53602), with inactive: 0; and MRPS16 (UniProt Q9Y3D3), with inactive: 0. For the target MED23 (UniProt Q9ULK4), the “dose-dependent thermal stabilisation call” value is inactive: 0. Then MED14 (UniProt O60244), with inactive: 0. In the case of MYH10 (UniProt P35580), the “dose-dependent thermal stabilisation call” value is inactive: 0. Then MPST (UniProt P25325), with inactive: 0; and MTA2 (UniProt O94776), with inactive: 0; and MED4 (UniProt Q9NPJ6), with inactive: 0.
